Assay results from PubChem BioAssay AID328 (DTP/NCI, 2004).
The list shows only some results of the screen, not a fair sample: it gathers tests that were run many times, whatever their T/C, doses with no T/C, and many T/C values between a quarter and a half above the control. Further doses and runs are listed elsewhere. T/C is the treated group as % of the vehicle group. Some doses have a count of surviving animals in place of a T/C: the source holds a T/C of zero for them, seemingly a mark for toxic or unscored doses. Some doses without a T/C left all or most animals alive at the check, yet need not have been tolerated: the source hardly ever lists a survival T/C far under the control, and the zero likely stands for such cases as well. Survivors were counted at the toxicity check, usually on the fifth day, unless a day is given; later deaths do not show. Schedules are NCI's codes, read here as Q, the interval in days (D) or hours (H), X, the number of doses. For survival time, this PubChem deposit counts one and a half times the control or more as active, and values a quarter to a half above the control carry no call in these data; other NCI protocols may use other cut-offs. Some doses were run more than once; the values are given in rising order. Some schedules carry Z or #; the key to these is not given. Some T/C values are followed by the survivors on the day toxicity was checked, most often the fifth; without a count, all were alive then.

System: BDF1 mice, P388 leukemia ip, median survival T/C
Experiment: NCI In Vivo Anticancer Drug Screen. Data for tumor model P388 Leukemia (intraperitoneal) in B6D2F1 (BDF1) mice
Settings: T/C endpoint: median survival time, higher T/C = longer survival
Outline: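 Mice carrying the transplantable tumour receive compound or vehicle. Survival is followed in each arm, and the treated measure is divided by the vehicle measure.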

[1] = dose: 100.0 mg/kg/injection, schedule: Q01DX009 (ip), vehicle: saline
[2] = dose: 400.0 mg/kg/injection, schedule: Q01DX009 (ip), vehicle: saline
[3] = dose: 400.0 mg/kg/injection, schedule: Q01DX009 (ip), vehicle: saline with Tween-80
[4] = dose: 400.0 mg/kg/injection, schedule: Q01DX009 (ip), vehicle: Klucel (hydroxypropylcellulose) (HPC)
[5] = dose: 200.0 mg/kg/injection, schedule: Q01DX009 (ip), vehicle: Klucel (hydroxypropylcellulose) (HPC)
[6] = dose: 200.0 mg/kg/injection, schedule: Q01DX009 (ip), vehicle: saline with Tween-80

Cc1ccc(-c2nc3cc(Cl)ccc3c(=O)o2)cc1
survivor count (dose: 400.0 mg/kg/injection, schedule: Q04DX003 (ip), vehicle: saline with Tween-80): 0 of 6

COc1ccc2c(Cc3ccccc3)cncc2c1O
T/C [1]: 125 % of control [5 of 6 alive]
survivor count (dose: 200.0 mg/kg/injection, schedule: Q01DX009 (ip), vehicle: saline): 3 of 6
survivor count [2]: 0 of 6

COc1cccnc1/C=N/NC(N)=S
T/C (dose: 6.0 mg/kg/injection, schedule: Q01DX009 (ip), vehicle: saline with Tween-80): 144 % of control
survivor count (dose: 18.0 mg/kg/injection, schedule: Q01DX009 (ip), vehicle: saline with Tween-80): 1 of 6
survivor count (dose: 24.0 mg/kg/injection, schedule: Q01DX009 (ip), vehicle: saline with Tween-80): 1 of 6
survivor count (dose: 27.0 mg/kg/injection, schedule: Q01DX009 (ip), vehicle: saline with Tween-80): 0 of 6

CC[N+](C)(C)c1ncnc2nc[nH]c12
survivor count (dose: 50.0 mg/kg/injection, schedule: Q01DX009 (ip), vehicle: saline): 6 of 6
survivor count (dose: 400.0 mg/kg/injection, schedule: Q04DX003 (ip), vehicle: saline): 1 of 6

CC(=O)C1C(=O)OC2(C)C(=O)C3=COC(/C=C\C(C)=C/C(C)C)=CC3=CC12 (stereo not drawn)
T/C (dose: 300.0 mg/kg/injection, schedule: Q01DX009 (ip), vehicle: saline with Tween-80): 127 % of control

CC(O)Cc1c[nH]c(=O)[nH]c1=O (stereo not drawn)
survivor count (dose: 400.0 mg/kg/injection, schedule: Q01DX009 (ip), vehicle: water): 4 of 6

C/C(=N/N(C)C)c1ccccn1
survivor count [3]: 2 of 6

Cc1c[nH]c(=O)[nH]c1=O
T/C (dose: 260.0 mg/kg/injection, schedule: Q04DX003 (ip), vehicle: saline with Tween-80): 130 % of control
T/C (dose: 260.0 mg/kg/injection, schedule: Q## X003 (ip), vehicle: saline with Tween-80): 130 % of control

O=C(CCCC(O)(C1CC1)C1CC1)C1CC1
survivor count [4]: 1 of 6

CC1(C)CC(=O)N/C1=C\C1NC(=O)CC1(C)C (stereo not drawn)
survivor count [3]: 5 of 6

Oc1ccccc1C1N=NC2=C(CCCC2)N1O (stereo not drawn)
survivor count [5]: 6 of 6

Cn1c(Cc2ccccc2)c([N+](=O)[O-])c(=O)n(C)c1=O
survivor count [6]: 2 of 6

Cc1ccc(NCCN(C)C)c2c(=O)c3ccccc3sc12
T/C (dose: 29.0 mg/kg/injection, schedule: Q04DX003 (ip), vehicle: saline): 140 % of control
T/C (dose: 45.0 mg/kg/injection, schedule: Q04DX003 (ip), vehicle: saline): 130 % of control
T/C (dose: 66.0 mg/kg/injection, schedule: Q04DX003 (ip), vehicle: saline): 131 and 140 % of control
survivor count (dose: 150.0 mg/kg/injection, schedule: Q04DX003 (ip), vehicle: saline): 6 of 6
survivor count (dose: 400.0 mg/kg/injection, schedule: Q04DX003 (ip), vehicle: alcohol): 1 of 6

CN(C)Cc1cccc(N)c1
survivor count (dose: 200.0 mg/kg/injection, schedule: Q04DX003 (ip), vehicle: water): 2 of 6

CCN1c2ccccc2CC(CCN(C)Cc2ccccc2)(C(N)=O)c2ccccc21 (stereo not drawn)
survivor count [6]: 2 of 6
survivor count [3]: 0 of 6

CC(=O)CC(C)(C)N
survivor count [1]: 3 of 6

O=c1c2ccccc2c2nc3ccc4c(=O)c5ccccc5c5nc6ccc1c2c6c3c45
survivor count (dose: 200.0 mg/kg/injection, schedule: Q01DX005 (ip), vehicle: saline with Tween-80): 5 of 5

NC(N)=Nc1ccc(C(=O)Nc2ccc([N+](=O)[O-])cc2)cc1
survivor count [2]: 4 of 6

CCCCCCCCOC(=O)c1[nH]cnc1/N=N\N(C)C
survivor count (dose: 100.0 mg/kg/injection, schedule: Q01DX009 (ip), vehicle: Klucel (hydroxypropylcellulose) (HPC)): 6 of 6
survivor count [5]: 6 of 6
survivor count [4]: 6 of 6
